Laboratory results reported in doi:10.1101/2022.11.23.517591.
Results are given in words; binding and its absence hold for the method and conditions named. For part of these data: In cells and extracts the contact can be indirect. Some binding calls cover weakened binding; strength is not graded here. Where a sequence is shown, tags or fusion partners need not be part of it. Blank lines part the entries; values can stand above or below the binder they belong to.

Tests used:
[1] = target: T1, AtRGS1, luciferase complementation fusion (Arabidopsis thaliana) (UniProt Q8H1F2); assay: split reporter
T1 sequence: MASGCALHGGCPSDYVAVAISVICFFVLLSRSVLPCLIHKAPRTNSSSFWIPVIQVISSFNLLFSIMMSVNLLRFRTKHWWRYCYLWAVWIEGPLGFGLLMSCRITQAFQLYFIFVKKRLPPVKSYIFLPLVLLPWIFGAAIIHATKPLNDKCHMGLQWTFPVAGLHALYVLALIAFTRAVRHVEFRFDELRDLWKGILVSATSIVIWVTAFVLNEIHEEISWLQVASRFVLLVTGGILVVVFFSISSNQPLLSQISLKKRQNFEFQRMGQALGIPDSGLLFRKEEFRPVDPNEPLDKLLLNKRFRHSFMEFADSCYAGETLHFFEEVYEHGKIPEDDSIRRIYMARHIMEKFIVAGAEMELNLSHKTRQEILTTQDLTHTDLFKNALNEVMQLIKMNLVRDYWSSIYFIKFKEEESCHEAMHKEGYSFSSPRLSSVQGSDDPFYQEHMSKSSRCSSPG

[2] = target: T2, AtRGS1 (Regulator of G protein Signaling 1), split-ubiquitin yeast two-hybrid fusion (Arabidopsis thaliana) (UniProt Q8H1F2); assay: two-hybrid
T2 sequence: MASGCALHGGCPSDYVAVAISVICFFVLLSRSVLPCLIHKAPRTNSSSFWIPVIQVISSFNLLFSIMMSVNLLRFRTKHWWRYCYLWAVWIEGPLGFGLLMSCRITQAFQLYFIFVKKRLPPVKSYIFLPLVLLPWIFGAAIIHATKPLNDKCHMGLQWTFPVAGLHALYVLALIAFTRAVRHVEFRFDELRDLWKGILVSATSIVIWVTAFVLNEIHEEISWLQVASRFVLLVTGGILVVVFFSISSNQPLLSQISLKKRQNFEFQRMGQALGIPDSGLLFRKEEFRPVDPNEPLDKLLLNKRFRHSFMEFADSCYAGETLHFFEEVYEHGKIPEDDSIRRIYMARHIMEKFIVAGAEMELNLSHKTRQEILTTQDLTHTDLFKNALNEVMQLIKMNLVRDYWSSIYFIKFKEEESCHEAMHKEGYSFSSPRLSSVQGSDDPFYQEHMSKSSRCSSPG

[3] = target: T3, VAP27-1, luciferase complementation fusion (Arabidopsis thaliana) (UniProt Q8VZ95); assay: split reporter
T3 sequence: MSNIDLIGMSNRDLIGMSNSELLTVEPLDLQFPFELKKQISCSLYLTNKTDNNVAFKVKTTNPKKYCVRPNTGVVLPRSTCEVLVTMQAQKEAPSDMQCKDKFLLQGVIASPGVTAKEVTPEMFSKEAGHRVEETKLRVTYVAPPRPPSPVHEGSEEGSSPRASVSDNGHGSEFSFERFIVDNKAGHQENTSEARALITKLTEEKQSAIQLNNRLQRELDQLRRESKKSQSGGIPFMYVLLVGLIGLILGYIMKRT

[4] = target: T4, RGS1-YFP, from the 35S::RGS1-YFP transgenic line (Arabidopsis thaliana) (UniProt Q8H1F2); assay: co-IP
T4 sequence: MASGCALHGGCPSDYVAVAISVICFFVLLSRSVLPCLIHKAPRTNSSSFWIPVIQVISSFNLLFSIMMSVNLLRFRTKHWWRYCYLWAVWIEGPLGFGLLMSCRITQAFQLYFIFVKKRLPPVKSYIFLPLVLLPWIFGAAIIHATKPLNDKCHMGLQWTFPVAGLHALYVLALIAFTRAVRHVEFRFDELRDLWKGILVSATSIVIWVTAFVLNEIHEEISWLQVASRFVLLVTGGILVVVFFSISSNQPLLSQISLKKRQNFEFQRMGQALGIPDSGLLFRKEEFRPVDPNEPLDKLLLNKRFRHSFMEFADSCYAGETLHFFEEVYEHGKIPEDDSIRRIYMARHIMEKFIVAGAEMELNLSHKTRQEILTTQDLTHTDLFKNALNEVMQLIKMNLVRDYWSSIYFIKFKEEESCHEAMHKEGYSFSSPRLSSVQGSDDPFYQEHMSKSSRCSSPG

[5] = target: T5, VAP27-1-GFP, from the 35S:VAP27-1-GFP transgenic plant (Arabidopsis thaliana) (UniProt Q8VZ95); assay: co-IP
T5 sequence: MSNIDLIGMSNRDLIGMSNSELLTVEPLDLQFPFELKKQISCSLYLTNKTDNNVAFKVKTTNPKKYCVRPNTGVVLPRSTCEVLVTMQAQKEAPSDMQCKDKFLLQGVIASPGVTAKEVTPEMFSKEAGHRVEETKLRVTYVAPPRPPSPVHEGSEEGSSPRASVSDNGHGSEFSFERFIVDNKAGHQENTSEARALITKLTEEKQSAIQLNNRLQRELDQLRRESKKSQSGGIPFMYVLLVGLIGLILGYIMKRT

[6] = target: T6, VAP27-1, Gal4 yeast two-hybrid fusion (Arabidopsis thaliana) (UniProt Q8VZ95); assay: two-hybrid
T6 sequence: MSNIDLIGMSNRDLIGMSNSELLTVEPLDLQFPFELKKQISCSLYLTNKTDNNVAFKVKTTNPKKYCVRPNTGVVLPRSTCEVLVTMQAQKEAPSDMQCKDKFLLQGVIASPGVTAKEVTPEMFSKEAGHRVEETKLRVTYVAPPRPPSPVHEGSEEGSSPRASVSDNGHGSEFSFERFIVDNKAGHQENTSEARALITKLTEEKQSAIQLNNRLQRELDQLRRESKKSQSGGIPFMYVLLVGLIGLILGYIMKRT

B1: PH domain of ORP2A, luciferase complementation fusion (domain or fragment, UniProt Q940Y1 50-177)
chain: SETVAGILYKWTNFGKGWRSRWFLLRNGILSYSKIRRPENLNLLSPDDDVRLIGDISGERLSRMDSCSGRRKQQKTVGIVHLKVSSFRESKSDDRKFYIFTATKTLHLRTDSITDRAAWLQALASTKC
- binding [1]: binds

B2: full-length ORP2A (oxysterol-binding protein (OSBP)-related protein 2A), split-ubiquitin yeast two-hybrid fusion (protein, UniProt Q940Y1 1-721)
chain: MRVKELHPLCCITLESPHGINSQSPEEPVTTALTRSRSLPAKSLTGGSESETVAGILYKWTNFGKGWRSRWFLLRNGILSYSKIRRPENLNLLSPDDDVRLIGDISGERLSRMDSCSGRRKQQKTVGIVHLKVSSFRESKSDDRKFYIFTATKTLHLRTDSITDRAAWLQALASTKCIFPLRSLNGDFSFIPPKDLSISTERLKKRLHEEGMNENLVKECEQIMLSEFSEMHGQVKLLHEERTNLLDALRQLEAANLEVGASGKHEFSSLGRGKYSECSTTASSDGKQEFEDVSEEDEPSFHDTKEFFNEPNIGSESNLAISGHTDIKRRTKLPDPAEKEKGVSLWSMIKDNVGKDLTRVCLPVYFNEPISSLQKCFEDLEYSYLLDRAYEHGKSGNGLLRALNVAAFAVSGYASTEGRHCKPFNPLLGETYEADFPEKGIRFFSEKVSHHPTVIACHCEGKGWKFWGDTNLRSKFWGRSIQVEPVGVLTLEFDDGEVFQWSKVTSTIYNIILGKLYCDHHGVMQIRGNRQYSCTLKFKEQSILERNPHQVNGFVEDVAGQKAATIFGKWDDSLYYVAGDGINKSKVSDPASNASLLWKRTKPPPNVTRYNLTSFAITLNELTPGLQEILPPTDSRLRPDQRHLENGEYEKANLEKQRLERRQRMSRQLQESGWRPRWFERQGESDTFKYTGGYWEARGHRNWDDCPDIFGEFTEELADAA
- binding [2]: binds

B4: ORP2A-3×Flag (Full-Length), from the 35S::ORP2Ag-3Flag transgenic line (protein, UniProt Q940Y1 1-721)
chain: MRVKELHPLCCITLESPHGINSQSPEEPVTTALTRSRSLPAKSLTGGSESETVAGILYKWTNFGKGWRSRWFLLRNGILSYSKIRRPENLNLLSPDDDVRLIGDISGERLSRMDSCSGRRKQQKTVGIVHLKVSSFRESKSDDRKFYIFTATKTLHLRTDSITDRAAWLQALASTKCIFPLRSLNGDFSFIPPKDLSISTERLKKRLHEEGMNENLVKECEQIMLSEFSEMHGQVKLLHEERTNLLDALRQLEAANLEVGASGKHEFSSLGRGKYSECSTTASSDGKQEFEDVSEEDEPSFHDTKEFFNEPNIGSESNLAISGHTDIKRRTKLPDPAEKEKGVSLWSMIKDNVGKDLTRVCLPVYFNEPISSLQKCFEDLEYSYLLDRAYEHGKSGNGLLRALNVAAFAVSGYASTEGRHCKPFNPLLGETYEADFPEKGIRFFSEKVSHHPTVIACHCEGKGWKFWGDTNLRSKFWGRSIQVEPVGVLTLEFDDGEVFQWSKVTSTIYNIILGKLYCDHHGVMQIRGNRQYSCTLKFKEQSILERNPHQVNGFVEDVAGQKAATIFGKWDDSLYYVAGDGINKSKVSDPASNASLLWKRTKPPPNVTRYNLTSFAITLNELTPGLQEILPPTDSRLRPDQRHLENGEYEKANLEKQRLERRQRMSRQLQESGWRPRWFERQGESDTFKYTGGYWEARGHRNWDDCPDIFGEFTEELADAA
- binding [4]: binds
- binding [5]: binds

Results, then the binder that gave them:

- binding [3]: binds
B3: full-length ORP2A, luciferase complementation fusion (protein, UniProt Q940Y1 1-721)
chain: MRVKELHPLCCITLESPHGINSQSPEEPVTTALTRSRSLPAKSLTGGSESETVAGILYKWTNFGKGWRSRWFLLRNGILSYSKIRRPENLNLLSPDDDVRLIGDISGERLSRMDSCSGRRKQQKTVGIVHLKVSSFRESKSDDRKFYIFTATKTLHLRTDSITDRAAWLQALASTKCIFPLRSLNGDFSFIPPKDLSISTERLKKRLHEEGMNENLVKECEQIMLSEFSEMHGQVKLLHEERTNLLDALRQLEAANLEVGASGKHEFSSLGRGKYSECSTTASSDGKQEFEDVSEEDEPSFHDTKEFFNEPNIGSESNLAISGHTDIKRRTKLPDPAEKEKGVSLWSMIKDNVGKDLTRVCLPVYFNEPISSLQKCFEDLEYSYLLDRAYEHGKSGNGLLRALNVAAFAVSGYASTEGRHCKPFNPLLGETYEADFPEKGIRFFSEKVSHHPTVIACHCEGKGWKFWGDTNLRSKFWGRSIQVEPVGVLTLEFDDGEVFQWSKVTSTIYNIILGKLYCDHHGVMQIRGNRQYSCTLKFKEQSILERNPHQVNGFVEDVAGQKAATIFGKWDDSLYYVAGDGINKSKVSDPASNASLLWKRTKPPPNVTRYNLTSFAITLNELTPGLQEILPPTDSRLRPDQRHLENGEYEKANLEKQRLERRQRMSRQLQESGWRPRWFERQGESDTFKYTGGYWEARGHRNWDDCPDIFGEFTEELADAA

- binding [6]: binds
B5: full-length ORP2A, Gal4 yeast two-hybrid fusion (protein, UniProt Q940Y1 1-721)
chain: MRVKELHPLCCITLESPHGINSQSPEEPVTTALTRSRSLPAKSLTGGSESETVAGILYKWTNFGKGWRSRWFLLRNGILSYSKIRRPENLNLLSPDDDVRLIGDISGERLSRMDSCSGRRKQQKTVGIVHLKVSSFRESKSDDRKFYIFTATKTLHLRTDSITDRAAWLQALASTKCIFPLRSLNGDFSFIPPKDLSISTERLKKRLHEEGMNENLVKECEQIMLSEFSEMHGQVKLLHEERTNLLDALRQLEAANLEVGASGKHEFSSLGRGKYSECSTTASSDGKQEFEDVSEEDEPSFHDTKEFFNEPNIGSESNLAISGHTDIKRRTKLPDPAEKEKGVSLWSMIKDNVGKDLTRVCLPVYFNEPISSLQKCFEDLEYSYLLDRAYEHGKSGNGLLRALNVAAFAVSGYASTEGRHCKPFNPLLGETYEADFPEKGIRFFSEKVSHHPTVIACHCEGKGWKFWGDTNLRSKFWGRSIQVEPVGVLTLEFDDGEVFQWSKVTSTIYNIILGKLYCDHHGVMQIRGNRQYSCTLKFKEQSILERNPHQVNGFVEDVAGQKAATIFGKWDDSLYYVAGDGINKSKVSDPASNASLLWKRTKPPPNVTRYNLTSFAITLNELTPGLQEILPPTDSRLRPDQRHLENGEYEKANLEKQRLERRQRMSRQLQESGWRPRWFERQGESDTFKYTGGYWEARGHRNWDDCPDIFGEFTEELADAA
